Data reported in US20250085283A1, “METHOD FOR QUANTIFYING NICOTINAMIDE ADENINE DINUCLEOTIDE (NAD+) OR NICOTINAMIDE MONONUCLEOTIDE (NMN), AND KIT AND FILTER PAPER FOR PERFORMING THE METHOD” (Teijin Limited, priority 2022, published 2025).

Key:
[1] = Chilled storage stability of NAD+ and NMN in blood spotted on filter paper (DBS, LC-MS/MS); format: physicochemical, human
Procedure: (§1) A filter paper, to which blood derived from a test subject is added (i.e., corresponding to a filter paper in Step 1 of the present invention), was searched for the optimal one for quantifying NAD+ and NMN when the filter paper with added blood derived from the test subject is stored in the refrigerator for a certain period of time.
From 5 subjects (adult men and women) per test, approximately 120 μL of blood (amount of 2 collection containers of the kit) was sampled by self-collection using an Micro Blood Collection Kit (Micro Blood Science Co., Ltd.), and was left to stand on ice until sample processing. The subjects were fasted on the morning of the sampling day, and samplings were performed around 9:00 am. The test was performed four times in total, with a total of 19 people performing evaluations, excluding one person due to insufficient sample blood volume.
The sampled blood was collected into 1.5 mL microtubes for each subject and mixed by gentle pipetting. Four types of filter papers (Whatman FTA DMPK-A Card/GE healthcare, QIAcard FTA DMPK-B Card/QIAGEN, QIAcard FTA DMPK-C Card/QIAGEN, Whatman 903 Protein saver card/Cytiva) were each spotted with 5 μL of blood (dropped/added) at multiple areas, sealed in a moisture absorption standard pouch (Moisture absorption-kun (registered trademark)/Maruto Sangyo Co., Ltd.), and stored in the refrigerator. Next, after chilled storing the blood-spotted filter paper for 2 days, 2 weeks (14 days or 15 days), or 1 month (30 days), the blood-spotted areas were cut out and collected in a 2 mL microtube. After adding 300 μL of a mixed aqueous solution of internal standard substances (NAD+-d4 and NMN-d4/Toronto Research Chemicals, Inc.) thereto and stirring using a vortex mixer, the mixture was mixed with a micromixer (TOMY MICRO TUBE MIXER MT-400, stirring speed 5) for 30 minutes at room temperature. The blood extract solution was dispensed by each 150 μL portion into a microtube, 300 μL of acetonitrile was added thereto, and the mixture was stirred using a vortex mixer, followed by centrifugation (24,250×g, 10 minutes, 4° C.). After centrifugation, 40 μL of the supernatant was dispensed into a vial and measured by LC-MS/MS.
In contrast, as a sample for initial values, 5 μL of blood was collected into a 2 mL microtube (no spotted filter paper), and 300 μL of a mixed aqueous solution of internal standard substances (NAD-d4 and NMN-d4/Toronto Research Chemicals, Inc.) was added thereto and stirred using a vortex mixer, and then the mixture was mixed using a micromixer (TOMY MICRO TUBE MIXER MT-400, stirring speed 5) for 30 minutes at room temperature. The blood extract solution was dispensed by each 150 μL portion into a microtube, 300 μL of acetonitrile was added thereto, and the mixture was stirred using a vortex mixer, followed by centrifugation (24,250×g, 10 minutes, 4° C.). After centrifugation, 40 μL of the supernatant was dispensed into a vial and measured by LC-MS/MS.

[2] = Extraction efficiency of NAD+ and NMN from filter paper (with vs without filter paper); parameters: species or system human; conditions: for Extraction efficiency (mean): concentration with filter paper / without filter paper
[3] = Room temperature storage stability of NAD+ and NMN in blood spotted on filter paper (DBS, LC-MS/MS); format: physicochemical, human
Procedure: as §1, with “at room temperature” for “in the refrigerator”
A part of the blood spotted-filter paper prepared in Example 2 was sealed in a moisture absorption standard pouch (Moisture absorption-kun (registered trademark)/Maruto Sangyo Co., Ltd.) and then stored at room temperature. After storage at room temperature for 2 days, 1 week (7 days), or 2 weeks (15 days), the blood-spotted areas were cut out and collected in a 2 mL microtube. After performing the same treatment as in Example 2, measurement by LC-MS/MS was performed under the same conditions as in Example 2.

[4] = Optimization study of extraction buffer: NAD+ and NMN quantified by LC-MS/MS in blood or blood cells; parameters: species or system rat; conditions: for Extraction efficiency, Blood cells, Evaluation / Concentration, Blood cells, Mean / Extraction efficiency, Blood cells, Mean: rat blood cells; for Extraction efficiency, Blood cells, Mean / Extraction efficiency, Blood, Mean: relative to 100:0 as 100%; for Extraction efficiency, Blood, Evaluation / Concentration, Blood, Mean / Extraction efficiency, Blood, Mean: rat whole blood
[5] = extraction buffer water:acetonitrile 0:100
[6] = extraction buffer water:acetonitrile 20:80
[7] = extraction buffer water:acetonitrile 40:60
[8] = extraction buffer water:acetonitrile 60:40 (NAD+ line prints 40:40)
[9] = extraction buffer water:acetonitrile 80:20
[10] = extraction buffer water:acetonitrile 100:0

NC(=O)c1ccc[n+]([C@@H]2O[C@H](COP(=O)([O-])O)[C@@H](O)[C@H]2O)c1 [NMN, nicotinamide mononucleotide]
Concentration (mean) ([1]; human blood on 903 card, chilled storage for 1 month): 1.02 µM
Concentration (mean) ([1]; human blood on 903 card, chilled storage for 2 weeks): 1.04 µM
Concentration (mean) ([1]; human blood on 903 card, chilled storage for 2 days): 1.10 µM
Concentration (mean) ([1]; human blood on DMPK-A card, chilled storage for 1 month): 1.38 µM
Concentration (mean) ([1]; human blood on DMPK-A card, chilled storage for 2 weeks): 1.37 µM
Concentration (mean) ([1]; human blood on DMPK-A card, chilled storage for 2 days): 1.10 µM
Concentration (mean) ([1]; human blood on DMPK-B card, chilled storage for 1 month): 1.61 µM
Concentration (mean) ([1]; human blood on DMPK-B card, chilled storage for 2 weeks): 1.62 µM
Concentration (mean) ([1]; human blood on DMPK-B card, chilled storage for 2 days): 1.41 µM
Concentration (mean) ([1]; human blood on DMPK-C card, chilled storage for 1 month): BLQ
Concentration (mean) ([1]; human blood on DMPK-C card, chilled storage for 2 weeks): 0.91 µM
Concentration (mean) ([1]; human blood on DMPK-C card, chilled storage for 2 days): 1.04 µM
Concentration (mean) ([1]; human blood, filter paper: none, storage for 0 days (initial value, Table 8)): 1.85 µM
Extraction efficiency, Evaluation ([2]; 903 card): Poor (Poor (<75%))
Extraction efficiency (mean) ([2]; 903 card): 73.2%
Extraction efficiency, Evaluation ([2]; DMPK-A card): Excellent: (Excellent (≥90%))
Extraction efficiency (mean) ([2]; DMPK-A card): 125.6%
Extraction efficiency, Evaluation ([2]; DMPK-B card): Good: (Good (≥85%))
Extraction efficiency (mean) ([2]; DMPK-B card): 87.7%
Extraction efficiency, Evaluation ([2]; DMPK-C card): Good (Good (≥85%))
Extraction efficiency (mean) ([2]; DMPK-C card): 87.9%
Concentration (mean) ([2]; human blood on 903 card, no storage): 1.20 µM
Concentration (mean) ([2]; human blood on DMPK-A card, no storage): 2.01 µM
Concentration (mean) ([2]; human blood on DMPK-B card, no storage): 1.62 µM
Concentration (mean) ([2]; human blood on DMPK-C card, no storage): 1.37 µM
Concentration (mean) ([2]; human blood, filter paper: none (Table 16)): 1.96 µM
Concentration (mean) ([3]; human blood on 903 card, room temperature storage for 2 weeks): unable to be quantified and BLQ
Concentration (mean) ([3]; human blood on 903 card, room temperature storage for 2 days): 1.38 µM
Concentration (mean) ([3]; human blood on DMPK-A card, room temperature storage for 2 weeks): 2.09 µM
Concentration (mean) ([3]; human blood on DMPK-A card, room temperature storage for 2 days): 1.95 µM
Concentration (mean) ([3]; human blood on DMPK-B card, room temperature storage for 1 week): 1.39 µM
Concentration (mean) ([3]; human blood on DMPK-B card, room temperature storage for 2 weeks): 1.17 µM
Concentration (mean) ([3]; human blood on DMPK-B card, room temperature storage for 2 days): 1.71 µM
Concentration (mean) ([3]; human blood on DMPK-C card, room temperature storage for 2 weeks): unable to be quantified and BLQ
Concentration (mean) ([3]; human blood on DMPK-C card, room temperature storage for 2 days): unable to be quantified and BLQ
Concentration (mean) ([3]; human blood, filter paper: none, storage for 0 days (initial value, Table 12)): 1.93 µM
Extraction efficiency, Blood cells, Evaluation [4, 5]: Poor (Poor (<40%))
Extraction efficiency, Blood cells, Evaluation [4, 6]: Poor (Poor (<40%))
Concentration, Blood cells, Mean [4, 7]: 9.96 µmol/L
Extraction efficiency, Blood cells, Evaluation [4, 7]: Excellent (Excellent (≥80%))
Extraction efficiency, Blood cells, Mean [4, 7]: 83.0%
Concentration, Blood cells, Mean [4, 8]: 12.58 µmol/L
Extraction efficiency, Blood cells, Evaluation [4, 8]: Excellent (Excellent (≥80%))
Extraction efficiency, Blood cells, Mean [4, 8]: 104.9%
Concentration, Blood cells, Mean [4, 9]: 12.23 µmol/L
Extraction efficiency, Blood cells, Evaluation [4, 9]: Excellent (Excellent (≥80%))
Extraction efficiency, Blood cells, Mean [4, 9]: 101.7%
Concentration, Blood cells, Mean [4, 10]: 12.03 µmol/L
Extraction efficiency, Blood cells, Evaluation [4, 10]: Excellent (Excellent (≥80%))
Extraction efficiency, Blood, Evaluation [4, 5]: Poor (Poor (<40%))
Extraction efficiency, Blood, Evaluation [4, 6]: Poor (Poor (<40%))
Concentration, Blood, Mean [4, 7]: 5.54 µmol/L
Extraction efficiency, Blood, Evaluation [4, 7]: Excellent (Excellent (≥80%))
Extraction efficiency, Blood, Mean [4, 7]: 85.4%
Concentration, Blood, Mean [4, 8]: 5.88 µmol/L
Extraction efficiency, Blood, Evaluation [4, 8]: Excellent (Excellent (≥80%))
Extraction efficiency, Blood, Mean [4, 8]: 91.1%
Concentration, Blood, Mean [4, 9]: 6.25 µmol/L
Extraction efficiency, Blood, Evaluation [4, 9]: Excellent (Excellent (≥80%))
Extraction efficiency, Blood, Mean [4, 9]: 96.5%
Concentration, Blood, Mean [4, 10]: 6.45 µmol/L
Extraction efficiency, Blood, Evaluation [4, 10]: Excellent (Excellent (≥80%))
